According to publication PMC12280033:
These are yes or no findings as the source states them, for the method shown. In cells and extracts the contact can be indirect. Some binding calls cover weakened binding; strength is not graded here.

By UniProt entry, the sequences of proteins in these tests, tags left out.
UniProt P40763: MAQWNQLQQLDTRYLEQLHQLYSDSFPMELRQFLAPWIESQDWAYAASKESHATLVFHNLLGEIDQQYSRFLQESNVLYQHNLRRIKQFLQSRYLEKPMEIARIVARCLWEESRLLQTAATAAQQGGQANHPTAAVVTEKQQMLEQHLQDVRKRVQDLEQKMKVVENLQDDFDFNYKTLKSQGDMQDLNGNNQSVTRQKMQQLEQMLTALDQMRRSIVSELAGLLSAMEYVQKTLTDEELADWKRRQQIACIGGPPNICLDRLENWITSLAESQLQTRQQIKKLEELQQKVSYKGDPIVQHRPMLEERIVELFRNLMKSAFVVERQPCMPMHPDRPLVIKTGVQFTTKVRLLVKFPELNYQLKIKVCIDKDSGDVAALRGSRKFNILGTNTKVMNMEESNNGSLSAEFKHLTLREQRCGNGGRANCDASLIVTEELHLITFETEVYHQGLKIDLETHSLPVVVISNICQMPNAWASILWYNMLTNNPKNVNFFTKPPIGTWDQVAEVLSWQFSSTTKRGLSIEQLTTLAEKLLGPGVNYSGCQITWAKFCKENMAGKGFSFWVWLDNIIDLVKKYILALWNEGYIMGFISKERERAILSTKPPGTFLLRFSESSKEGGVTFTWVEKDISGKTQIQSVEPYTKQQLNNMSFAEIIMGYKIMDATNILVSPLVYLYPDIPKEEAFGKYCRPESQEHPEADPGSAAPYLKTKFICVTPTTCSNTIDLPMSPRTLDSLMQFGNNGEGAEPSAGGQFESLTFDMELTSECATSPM
UniProt Q93008: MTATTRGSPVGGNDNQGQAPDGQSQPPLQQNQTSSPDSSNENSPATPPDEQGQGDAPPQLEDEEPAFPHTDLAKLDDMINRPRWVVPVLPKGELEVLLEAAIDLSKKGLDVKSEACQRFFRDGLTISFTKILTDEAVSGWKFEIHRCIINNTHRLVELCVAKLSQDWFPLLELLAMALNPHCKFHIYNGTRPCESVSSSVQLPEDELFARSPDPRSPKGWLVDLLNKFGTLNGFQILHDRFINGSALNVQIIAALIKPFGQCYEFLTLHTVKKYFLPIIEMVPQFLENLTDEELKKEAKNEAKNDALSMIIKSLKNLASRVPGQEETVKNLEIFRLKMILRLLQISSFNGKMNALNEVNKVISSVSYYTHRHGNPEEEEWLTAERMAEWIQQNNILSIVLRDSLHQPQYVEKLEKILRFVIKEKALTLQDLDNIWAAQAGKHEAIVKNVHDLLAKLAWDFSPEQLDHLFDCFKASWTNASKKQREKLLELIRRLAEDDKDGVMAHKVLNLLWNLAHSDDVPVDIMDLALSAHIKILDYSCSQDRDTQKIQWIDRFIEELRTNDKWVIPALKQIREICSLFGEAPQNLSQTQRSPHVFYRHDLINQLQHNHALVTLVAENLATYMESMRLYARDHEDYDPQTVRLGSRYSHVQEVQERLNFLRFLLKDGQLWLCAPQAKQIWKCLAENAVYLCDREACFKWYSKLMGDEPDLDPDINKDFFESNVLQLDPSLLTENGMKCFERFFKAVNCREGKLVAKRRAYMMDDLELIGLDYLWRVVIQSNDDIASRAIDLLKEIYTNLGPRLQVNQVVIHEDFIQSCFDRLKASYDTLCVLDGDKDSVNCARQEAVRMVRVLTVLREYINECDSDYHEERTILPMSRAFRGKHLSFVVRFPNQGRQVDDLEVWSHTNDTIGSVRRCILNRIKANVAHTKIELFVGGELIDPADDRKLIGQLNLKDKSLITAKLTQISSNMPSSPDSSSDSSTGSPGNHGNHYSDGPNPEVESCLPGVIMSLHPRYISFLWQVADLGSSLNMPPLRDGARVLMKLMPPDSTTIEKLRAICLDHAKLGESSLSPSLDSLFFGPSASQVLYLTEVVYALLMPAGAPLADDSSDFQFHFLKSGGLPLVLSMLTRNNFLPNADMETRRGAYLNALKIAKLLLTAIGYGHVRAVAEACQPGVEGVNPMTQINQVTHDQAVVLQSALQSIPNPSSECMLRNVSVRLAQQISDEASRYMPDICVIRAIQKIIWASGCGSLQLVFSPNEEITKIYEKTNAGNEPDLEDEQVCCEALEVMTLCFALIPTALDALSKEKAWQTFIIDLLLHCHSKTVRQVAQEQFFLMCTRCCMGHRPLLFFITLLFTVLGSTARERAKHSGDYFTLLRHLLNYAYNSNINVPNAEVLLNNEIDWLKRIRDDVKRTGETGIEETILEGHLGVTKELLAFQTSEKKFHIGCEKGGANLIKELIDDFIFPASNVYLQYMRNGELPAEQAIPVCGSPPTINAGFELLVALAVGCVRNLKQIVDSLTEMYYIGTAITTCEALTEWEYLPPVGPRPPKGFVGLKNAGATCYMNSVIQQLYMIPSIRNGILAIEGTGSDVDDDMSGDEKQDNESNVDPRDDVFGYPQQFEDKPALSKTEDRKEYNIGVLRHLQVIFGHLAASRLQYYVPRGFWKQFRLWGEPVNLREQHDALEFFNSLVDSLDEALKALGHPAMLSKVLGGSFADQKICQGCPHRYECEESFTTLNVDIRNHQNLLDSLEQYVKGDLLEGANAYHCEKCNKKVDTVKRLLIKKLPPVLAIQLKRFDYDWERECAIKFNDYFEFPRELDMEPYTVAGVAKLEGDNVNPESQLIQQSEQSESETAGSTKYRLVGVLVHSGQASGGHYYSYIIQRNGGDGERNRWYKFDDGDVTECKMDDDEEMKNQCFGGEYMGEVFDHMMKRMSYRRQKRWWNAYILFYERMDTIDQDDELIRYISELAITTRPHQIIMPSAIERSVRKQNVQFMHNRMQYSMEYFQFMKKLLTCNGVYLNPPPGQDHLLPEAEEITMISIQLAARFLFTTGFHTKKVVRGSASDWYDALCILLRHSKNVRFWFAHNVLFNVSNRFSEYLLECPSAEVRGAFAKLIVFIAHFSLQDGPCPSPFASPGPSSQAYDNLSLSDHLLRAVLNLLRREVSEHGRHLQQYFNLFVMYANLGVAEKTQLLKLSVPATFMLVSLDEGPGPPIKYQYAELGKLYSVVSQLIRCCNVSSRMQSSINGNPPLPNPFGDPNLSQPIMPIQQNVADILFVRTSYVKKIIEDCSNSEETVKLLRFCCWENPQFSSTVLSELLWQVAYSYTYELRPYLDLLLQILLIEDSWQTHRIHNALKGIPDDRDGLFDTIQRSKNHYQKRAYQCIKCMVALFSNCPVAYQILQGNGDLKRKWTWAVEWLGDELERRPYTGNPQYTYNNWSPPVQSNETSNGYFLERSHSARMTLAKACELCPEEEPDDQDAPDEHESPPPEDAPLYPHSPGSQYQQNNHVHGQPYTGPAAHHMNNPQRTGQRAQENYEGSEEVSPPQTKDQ
UniProt Q9UPU5: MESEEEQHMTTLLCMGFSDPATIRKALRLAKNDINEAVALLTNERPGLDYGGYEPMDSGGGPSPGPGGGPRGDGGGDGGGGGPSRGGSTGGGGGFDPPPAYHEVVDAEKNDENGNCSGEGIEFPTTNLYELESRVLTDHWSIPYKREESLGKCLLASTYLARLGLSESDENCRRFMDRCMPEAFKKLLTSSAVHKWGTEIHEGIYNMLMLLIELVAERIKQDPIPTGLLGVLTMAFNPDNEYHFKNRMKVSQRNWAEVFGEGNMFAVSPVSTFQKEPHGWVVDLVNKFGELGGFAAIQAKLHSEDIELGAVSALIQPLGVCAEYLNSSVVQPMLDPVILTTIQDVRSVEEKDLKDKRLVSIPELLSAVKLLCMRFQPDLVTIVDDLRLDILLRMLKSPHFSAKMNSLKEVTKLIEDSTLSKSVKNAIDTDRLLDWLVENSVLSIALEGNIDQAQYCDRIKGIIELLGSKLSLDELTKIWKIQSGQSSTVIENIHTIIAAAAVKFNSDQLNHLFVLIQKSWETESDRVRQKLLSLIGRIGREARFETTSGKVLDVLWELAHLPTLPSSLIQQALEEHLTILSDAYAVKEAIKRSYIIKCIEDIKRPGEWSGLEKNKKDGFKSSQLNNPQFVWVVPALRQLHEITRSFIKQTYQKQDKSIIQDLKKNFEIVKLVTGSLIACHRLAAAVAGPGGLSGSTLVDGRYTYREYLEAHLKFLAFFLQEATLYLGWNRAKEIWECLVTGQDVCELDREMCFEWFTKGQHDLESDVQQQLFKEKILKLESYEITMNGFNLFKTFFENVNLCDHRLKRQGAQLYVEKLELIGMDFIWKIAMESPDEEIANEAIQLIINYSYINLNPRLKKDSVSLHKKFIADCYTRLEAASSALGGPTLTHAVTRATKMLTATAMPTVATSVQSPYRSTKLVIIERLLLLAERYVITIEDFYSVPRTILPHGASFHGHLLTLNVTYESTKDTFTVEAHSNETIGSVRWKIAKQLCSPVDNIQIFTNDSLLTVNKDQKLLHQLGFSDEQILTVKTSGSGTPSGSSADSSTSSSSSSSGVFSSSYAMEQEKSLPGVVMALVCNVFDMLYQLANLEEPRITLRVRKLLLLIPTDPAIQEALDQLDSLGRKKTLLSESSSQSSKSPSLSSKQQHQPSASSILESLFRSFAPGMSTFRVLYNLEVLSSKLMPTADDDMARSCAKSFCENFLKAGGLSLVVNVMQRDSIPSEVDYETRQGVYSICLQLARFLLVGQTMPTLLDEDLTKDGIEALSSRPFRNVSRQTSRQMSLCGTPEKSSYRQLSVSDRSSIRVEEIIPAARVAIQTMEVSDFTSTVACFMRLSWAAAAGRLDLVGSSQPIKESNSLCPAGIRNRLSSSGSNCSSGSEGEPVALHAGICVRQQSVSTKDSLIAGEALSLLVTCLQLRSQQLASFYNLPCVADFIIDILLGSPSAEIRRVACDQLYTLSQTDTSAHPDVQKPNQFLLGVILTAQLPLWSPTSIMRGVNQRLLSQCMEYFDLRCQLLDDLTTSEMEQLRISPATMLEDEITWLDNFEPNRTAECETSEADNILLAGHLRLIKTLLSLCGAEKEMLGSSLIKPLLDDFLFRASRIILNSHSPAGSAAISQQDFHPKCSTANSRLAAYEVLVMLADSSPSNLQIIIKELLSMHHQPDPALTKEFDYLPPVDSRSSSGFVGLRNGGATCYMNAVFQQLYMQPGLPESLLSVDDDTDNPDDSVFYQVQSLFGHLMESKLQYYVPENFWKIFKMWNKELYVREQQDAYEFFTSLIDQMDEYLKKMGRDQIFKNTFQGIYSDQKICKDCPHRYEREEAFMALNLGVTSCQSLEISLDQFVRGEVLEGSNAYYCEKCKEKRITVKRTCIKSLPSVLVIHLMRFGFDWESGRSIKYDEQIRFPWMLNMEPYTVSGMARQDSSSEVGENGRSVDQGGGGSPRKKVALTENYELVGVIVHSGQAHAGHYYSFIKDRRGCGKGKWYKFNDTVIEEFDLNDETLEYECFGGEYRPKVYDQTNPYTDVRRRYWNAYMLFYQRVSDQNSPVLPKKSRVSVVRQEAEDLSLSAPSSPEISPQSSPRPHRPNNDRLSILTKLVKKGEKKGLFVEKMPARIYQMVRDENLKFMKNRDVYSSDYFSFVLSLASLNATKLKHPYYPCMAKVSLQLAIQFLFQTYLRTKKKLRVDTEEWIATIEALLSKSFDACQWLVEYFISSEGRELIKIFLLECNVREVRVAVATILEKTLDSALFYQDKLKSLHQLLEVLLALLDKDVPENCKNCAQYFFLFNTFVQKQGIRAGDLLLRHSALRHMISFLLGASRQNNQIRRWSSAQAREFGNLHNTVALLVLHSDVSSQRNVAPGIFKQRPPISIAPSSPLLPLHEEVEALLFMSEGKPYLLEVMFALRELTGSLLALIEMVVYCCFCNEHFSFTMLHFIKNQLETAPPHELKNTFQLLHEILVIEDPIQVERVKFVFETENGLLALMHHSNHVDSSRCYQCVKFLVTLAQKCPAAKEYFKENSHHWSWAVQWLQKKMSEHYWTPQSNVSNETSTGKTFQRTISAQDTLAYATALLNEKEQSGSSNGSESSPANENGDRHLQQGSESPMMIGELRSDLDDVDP

target: STAT3 (human (endogenous in KYSE30 and KYSE510)) (UniProt P40763); assay: co-IP; reciprocal co-immunoprecipitation from ESCC cell lysates (weak RIPA lysis buffer with protease and phosphatase inhibitors), Dynabeads Protein G, eluate analysed by Western blot

Substance	binding
USP9X (from UniProt Q93008 1-2554) (enzyme)	no binding
USP24 (from UniProt Q9UPU5 1-2620) (enzyme)	no binding
ubiquitin-specific protease 5 (USP5) (from UniProt P45974-1 1-858) (enzyme)	binds
